# Test results from the supplement of paper PMC8728848.
# The list shows a part of the results.
# B1: GST-Gap1 (Streptococcus parasanguinis), A1C3L5 (protein)
# chain: MFYFVPSWYNGQRQWYYDTPWWFRVKNRMTFDDSVNQVKMFLQGQEEIGLMILNYQPQLRYFLHKQNIFGIYYWSFFDDIQNITRSYTKIIHLKDLNWPEGCEFLYSPFAVVVRLKGEIFAIVNYAEDGNLHSVSFQKNGKVTKDYIFDDRGFLSSILYYDIDERPLYQDYLNINGVWQVREFLKKENDPTPILMINDFSDQTFSKKYYNGWEELIKERLAIFQNNHVENEDVFVLASDTQHNQLVSSIFKEHRKIYSFFGNRFNLENLGQDRISINDATFLVVDTEKNEELLRKTCENLVFKSIPIVRLSPFDSRLRLGHSQTVKEQIIYFHIDNIELDELYSVIAIILELMTLHLDIELRIVTFRQDFQLDLLKTWIIDFIKTNHFEDLLFKQISEGENEIEDEGEIELSRIAMECFTNENQIIKCLDTARLVIDLGIEPDLYTQIASISAGIPQINRVSSDYVIHQKNGLVISDISKLSSAIEFYFDGLFNWNEALIYAVRKMSDYTSGKILKQWKGMLKKK
# Columns and labels:
# Assay in all cases: glycan array binding signal (z-score within array); higher = stronger binding
# Conditions in all cases: glycan notation: IUPAC condensed, linker removed
# [1] = molecular target: Neu5Ac(a2-3)Gal(b1-4)GlcNAc(b1-6)[Gal(b1-3)]GalNAc
# Procedure, shortened: (§1)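 The binding signal is a Z-score computed within each array. Data were drawn from 3228 arrays in the Consortium for Functional Glycomics database, restricted to those with a known protein sequence. Scores were averaged over arrays of the same protein sequence at different concentrations or buffers, and over linkers, and negative values can be taken as non-binding.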
# [2] = molecular target: Neu5Ac(a2-3)Gal(b1-4)GlcNAc(b1-6)[Neu5Ac(a2-3)Gal(b1-3)]GalNAc
# Procedure, shortened: as §1
# [3] = molecular target: Neu5Ac(a2-3)Gal(b1-4)GlcNAc6S
# Procedure, shortened: as §1
# [4] = molecular target: Neu5Ac(a2-3)Gal(b1-4)[Fuc(a1-3)]GlcNAc
# Procedure, shortened: as §1
# [5] = molecular target: Neu5Ac(a2-3)Gal(b1-4)[Fuc(a1-3)]GlcNAc(b1-2)Man
# Procedure, shortened: as §1
# [6] = molecular target: Neu5Ac(a2-3)Gal(b1-4)[Fuc(a1-3)]GlcNAc(b1-3)Gal
# Procedure, shortened: as §1
# [7] = molecular target: Neu5Ac(a2-3)Gal(b1-4)[Fuc(a1-3)]GlcNAc(b1-3)Gal(b1-4)GlcNAc
# Procedure, shortened: as §1
# [8] = molecular target: Neu5Ac(a2-3)Gal(b1-4)[Fuc(a1-3)]GlcNAc(b1-3)Gal(b1-4)[Fuc(a1-3)]GlcNAc(b1-3)Gal(b1-4)[Fuc(a1-3)]GlcNAc
# Procedure, shortened: as §1
# [9] = molecular target: Neu5Ac(a2-3)Gal(b1-4)[Fuc(a1-3)]GlcNAc(b1-3)GalNAc
# Procedure, shortened: as §1
# [10] = molecular target: Neu5Ac(a2-3)Gal(b1-4)[Fuc(a1-3)]GlcNAc(b1-6)[Gal(b1-3)]GalNAc
# Procedure, shortened: as §1
# [11] = molecular target: Neu5Ac(a2-3)Gal(b1-4)[Fuc(a1-3)]GlcNAc(b1-6)[Neu5Ac(a2-3)Gal(b1-3)]GalNAc
# Procedure, shortened: as §1
# [12] = molecular target: Neu5Ac(a2-3)Gal(b1-4)[Fuc(a1-3)]GlcNAc6S
# Procedure, shortened: as §1
# [13] = molecular target: Neu5Ac(a2-3)Gal6S(b1-4)GlcNAc
# Procedure, shortened: as §1
# [14] = molecular target: Neu5Ac(a2-3)Gal6S(b1-4)[Fuc(a1-3)]GlcNAc
# Procedure, shortened: as §1
# [15] = molecular target: Neu5Ac(a2-3)GalNAc
# Procedure, shortened: as §1
# [16] = molecular target: Neu5Ac(a2-3)GalNAc(b1-4)GlcNAc
# Procedure, shortened: as §1
# [17] = molecular target: Neu5Ac(a2-3)[GalNAc(b1-4)]Gal(b1-4)Glc
# Procedure, shortened: as §1
# [18] = molecular target: Neu5Ac(a2-3)[GalNAc(b1-4)]Gal(b1-4)GlcNAc
# Procedure, shortened: as §1
# [19] = molecular target: Neu5Ac(a2-3)[GalNAc(b1-4)]Gal(b1-4)GlcNAc(b1-3)GalNAc
# Procedure, shortened: as §1
# [20] = molecular target: Neu5Ac(a2-3)[Neu5Ac(a2-6)]GalNAc
# Procedure, shortened: as §1
# [21] = molecular target: Neu5Ac(a2-6)Gal
# Procedure, shortened: as §1
# [22] = molecular target: Neu5Ac(a2-6)Gal(b1-3)GlcNAc(b1-3)[Gal(b1-4)GlcNAc(b1-6)]Gal(b1-4)Glc
# Procedure, shortened: as §1
# [23] = molecular target: Neu5Ac(a2-6)Gal(b1-4)Glc
# Procedure, shortened: as §1
# [24] = molecular target: Neu5Ac(a2-6)Gal(b1-4)GlcNAc
# Procedure, shortened: as §1
# [25] = molecular target: Neu5Ac(a2-6)Gal(b1-4)GlcNAc(b1-2)Man
# Procedure, shortened: as §1
# [26] = molecular target: Neu5Ac(a2-6)Gal(b1-4)GlcNAc(b1-2)Man(a1-3)Man(b1-4)GlcNAc(b1-4)GlcNAc
# Procedure, shortened: as §1
# [27] = molecular target: Neu5Ac(a2-6)Gal(b1-4)GlcNAc(b1-2)Man(a1-3)[Gal(b1-4)GlcNAc(b1-2)Man(a1-6)]Man(b1-4)GlcNAc(b1-4)GlcNAc
# Procedure, shortened: as §1
# [28] = molecular target: Neu5Ac(a2-6)Gal(b1-4)GlcNAc(b1-2)Man(a1-3)[GlcNAc(b1-2)Man(a1-6)]Man(b1-4)GlcNAc(b1-4)GlcNAc
# Procedure, shortened: as §1
# [29] = molecular target: Neu5Ac(a2-6)Gal(b1-4)GlcNAc(b1-2)Man(a1-3)[GlcNAc(b1-2)Man(b1-4)GlcNAc(b1-2)Man(a1-6)]Man(b1-4)GlcNAc(b1-4)GlcNAc
# Procedure, shortened: as §1
# [30] = molecular target: Neu5Ac(a2-6)Gal(b1-4)GlcNAc(b1-2)Man(a1-3)[GlcNAc(b1-4)][Neu5Ac(a2-6)Gal(b1-4)GlcNAc(b1-2)Man(a1-6)]Man(b1-4)GlcNAc(b1-4)GlcNAc
# Procedure, shortened: as §1
# [31] = molecular target: Neu5Ac(a2-6)Gal(b1-4)GlcNAc(b1-2)Man(a1-3)[Man(a1-6)]Man(b1-4)GlcNAc(b1-4)GlcNAc
# Procedure, shortened: as §1
# [32] = molecular target: Neu5Ac(a2-6)Gal(b1-4)GlcNAc(b1-2)Man(a1-3)[Neu5Ac(a2-3)Gal(b1-4)GlcNAc(b1-2)Man(a1-6)]Man(b1-4)GlcNAc(b1-4)GlcNAc
# Procedure, shortened: as §1
# [33] = molecular target: Neu5Ac(a2-6)Gal(b1-4)GlcNAc(b1-2)Man(a1-3)[Neu5Ac(a2-6)Gal(b1-4)GlcNAc(b1-2)Man(a1-6)]Man(b1-4)GlcNAc(b1-4)GlcNAc
# Procedure, shortened: as §1
# [34] = molecular target: Neu5Ac(a2-6)Gal(b1-4)GlcNAc(b1-2)Man(a1-3)[Neu5Ac(a2-6)Gal(b1-4)GlcNAc(b1-2)Man(a1-6)]Man(b1-4)GlcNAc(b1-4)[Fuc(a1-6)]GlcNAc
# Procedure, shortened: as §1
# [35] = molecular target: Neu5Ac(a2-6)Gal(b1-4)GlcNAc(b1-2)Man(a1-6)Man(b1-4)GlcNAc(b1-4)GlcNAc
# Procedure, shortened: as §1
# [36] = molecular target: Neu5Ac(a2-6)Gal(b1-4)GlcNAc(b1-2)Man(a1-6)[Gal(b1-4)GlcNAc(b1-2)Man(a1-3)]Man(b1-4)GlcNAc(b1-4)GlcNAc
# Procedure, shortened: as §1
# [37] = molecular target: Neu5Ac(a2-6)Gal(b1-4)GlcNAc(b1-2)Man(a1-6)[GlcNAc(b1-2)Man(a1-3)]Man(b1-4)GlcNAc(b1-4)GlcNAc
# Procedure, shortened: as §1
# [38] = molecular target: Neu5Ac(a2-6)Gal(b1-4)GlcNAc(b1-2)Man(a1-6)[Man(a1-3)]Man(b1-4)GlcNAc(b1-4)GlcNAc
# Procedure, shortened: as §1
binder,measurement,setting,value
B1,glycan array binding signal (z-score),[1],-0.423
same,glycan array binding signal (z-score),[2],0.09
same,glycan array binding signal (z-score),[3],-0.075
same,glycan array binding signal (z-score),[4],-0.399
same,glycan array binding signal (z-score),[5],-1.03
same,glycan array binding signal (z-score),[6],-0.085
same,glycan array binding signal (z-score),[7],1.55
same,glycan array binding signal (z-score),[8],0.525
same,glycan array binding signal (z-score),[9],1.62
same,glycan array binding signal (z-score),[10],1.35
same,glycan array binding signal (z-score),[11],-0.37
same,glycan array binding signal (z-score),[12],0.406
same,glycan array binding signal (z-score),[13],-0.226
same,glycan array binding signal (z-score),[14],-0.201
same,glycan array binding signal (z-score),[15],-0.568
same,glycan array binding signal (z-score),[16],0.072
same,glycan array binding signal (z-score),[17],-0.656
same,glycan array binding signal (z-score),[18],-0.174
same,glycan array binding signal (z-score),[19],0.114
same,glycan array binding signal (z-score),[20],-0.69
same,glycan array binding signal (z-score),[21],-0.005
same,glycan array binding signal (z-score),[22],-0.521
same,glycan array binding signal (z-score),[23],-0.264
same,glycan array binding signal (z-score),[24],-0.228
same,glycan array binding signal (z-score),[25],1.38
same,glycan array binding signal (z-score),[26],-0.001
same,glycan array binding signal (z-score),[27],1.8
same,glycan array binding signal (z-score),[28],-0.335
same,glycan array binding signal (z-score),[29],0.287
same,glycan array binding signal (z-score),[30],-0.168
same,glycan array binding signal (z-score),[31],-0.313
same,glycan array binding signal (z-score),[32],0.84
same,glycan array binding signal (z-score),[33],-0.179
same,glycan array binding signal (z-score),[34],0.529
same,glycan array binding signal (z-score),[35],-0.148
same,glycan array binding signal (z-score),[36],-0.247
same,glycan array binding signal (z-score),[37],0.187
same,glycan array binding signal (z-score),[38],0.218

# Exported bar-delimited: part of the list above
binder | measurement | setting | value
B1 | glycan array binding signal (z-score) | [3] | -0.075
same | glycan array binding signal (z-score) | [4] | -0.399
same | glycan array binding signal (z-score) | [5] | -1.03
same | glycan array binding signal (z-score) | [6] | -0.085
same | glycan array binding signal (z-score) | [7] | 1.55
same | glycan array binding signal (z-score) | [8] | 0.525
same | glycan array binding signal (z-score) | [9] | 1.62
